Molecular target: RXRα (Homo sapiens, UniProt P19793)
Test: biochemical

Protein sequences, listed by entry. Tags and fused reporters are not part of them. Residues count along the entry.
UniProt P19793, 223-462: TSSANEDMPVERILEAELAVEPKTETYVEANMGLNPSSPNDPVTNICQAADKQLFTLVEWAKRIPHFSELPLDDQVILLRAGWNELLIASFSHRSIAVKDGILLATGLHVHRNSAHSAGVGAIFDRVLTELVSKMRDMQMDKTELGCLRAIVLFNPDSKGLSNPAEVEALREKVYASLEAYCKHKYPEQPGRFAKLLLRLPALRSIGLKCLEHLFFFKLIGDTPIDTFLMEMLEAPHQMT

Structure (SMILES): CC(C)c1c(C(=O)Nc2ccccc2)c(-c2ccccc2)c(-c2ccc(F)cc2)n1CC[C@@H](O)C[C@@H](O)CC(=O)O [atorvastatin]
- Kd: 10.3 µM

Source: PMC6447056 (Bioorganic chemistry, 2019)
